The values that follow come from article PMC11980547.

Results are given in words; binding and its absence hold for the method and conditions named. A result given as binding can be weak or reduced; the word gives no strength. Tags and fused reporters may be left off the sequences shown. For some of these results: Binding seen in cells or lysates may run through a third protein.

Assay [1] addresses T1, EqCmu-C’YFP (Erysiphe quercicola).
T1 sequence: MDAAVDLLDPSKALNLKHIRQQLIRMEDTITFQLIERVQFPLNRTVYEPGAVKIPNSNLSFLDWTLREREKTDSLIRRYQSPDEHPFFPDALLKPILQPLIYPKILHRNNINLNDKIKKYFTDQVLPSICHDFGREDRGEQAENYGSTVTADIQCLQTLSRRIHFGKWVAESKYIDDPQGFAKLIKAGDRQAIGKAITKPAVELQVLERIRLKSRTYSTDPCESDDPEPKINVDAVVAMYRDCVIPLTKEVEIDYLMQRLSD
Kind of assay: split reporter; BiFC: EqCmu-C’YFP and EqPdt-N’YFP co-expressed in N. benthamiana leaves; YFP signals read 48 hours after Agrobacterium infiltration.

The target in assay [2] is T2, EqCmu-GFP (Erysiphe quercicola).
T2 sequence: T1 sequence
Kind of assay: co-IP; EqCmu-GFP and EqPdt-Flag co-expressed in N. benthamiana leaves; total leaf proteins incubated with GFP beads (Chromotek) at 4°C for 4 hours; blot with anti-GFP and anti-Flag (anti-DDDK).

Assay [3] has as its target T3, EqCmu-His (Erysiphe quercicola).
T3 sequence: T1 sequence
Put plainly: pull-down; EqCmu-His (10 µg) held on anti-His beads at 4℃; EqPdt-GST (5 µg) added for 2 hours at 4°C, without or with infected or non-infected H. brasiliensis leaf cytosolic extract (30 µg; the extract enhanced the interaction); blot with anti-His and anti-GST; both purified.

Assay [4] addresses EqPdt-BD (Erysiphe quercicola). Kind of assay: two-hybrid; pGADT7 and pGBKT7 fusions in yeast Y2HGold; growth on SD-LWHA with X-α-gal, 30℃.

For the molecule EqPdt-N’YFP (Erysiphe quercicola), the binding result in assay [1] is listed as “binds”.

For EqPdt-Flag (Erysiphe quercicola), the binding entry in assay [2] was “binds”.

As for EqPdt-GST (Erysiphe quercicola), in assay [3], the binding result is given as “binds”.

B1: EqCmu-AD (protein, UniProt A0A5B8NIM2 1-262)
chain: T1 sequence
Regarding B1, the binding result in assay [4] is “binds”.
